Taken from: PubChem BioAssay AID1159584 (Peter MacCallum Cancer Centre, 2016)
Assay: 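Knock-downs that harm CDH1-null cells more than parental MCF10A cells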 (primary screen). Cell system: human MCF10A breast epithelial cells, parental and CDH1-null. Knock-down reagent: siRNA against human genes. Read-out: 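Cell viability by CellTiter-Glo ATP luminescence, each line scaled to the mean of mock wells across plates, then CDH1-null over parental ratio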. Reading the numbers: CDH1-null / parental viability ratio: higher = CDH1-null cells survive relatively better than parental; CDH1-null viability vs mock: higher = more viable CDH1-null cells.
The deposit covers about 18,000 reagents; this is a part drawn at random. Further read-outs or replicates are left out here. No sequences are given here. The record does not give: the amount of reagent, the time to read-out.

Target gene	CDH1-null / parental viability ratio	CDH1-null viability vs mock (fraction of mock)
MBTD1	1.12	1.15
TUBA4A	0.84	0.53
PPP1CC	1.36	0.9
HAMP	1.06	0.7
MUC15	0.7	0.49
TEX55	1.05	0.61
RAB2B	0.72	0.76
PPP3CB	1.13	0.96
ODF2	1.17	1.12
MXRA8	1.37	1.04
SPRY2	0.88	0.73
MR1	1.32	1.27
LIN9	1.06	0.82
F2RL1	0.74	0.74
PSMG3	0.92	0.92
RIMOC1	1.03	0.75
KLHL13	1.03	0.64
RAB38	0.82	0.41
NUP214	1.01	0.81
ERG	0.87	0.91
XPO1	1.03	0.8
S100A4	0.81	0.42
ISCA2	0.88	0.84
ATAD2	0.99	0.97
HTR2C	0.85	0.86
TLE2	0.8	0.66
TECPR2	1.05	0.92
DIAPH3	1.05	0.92
TPMT	0.96	0.94
WDR37	1.26	0.48
SMARCAL1	0.84	0.62
ZNF829	1.06	0.7
PABIR1	0.81	0.73
ZNF569	1.2	1.03
GINM1	1.09	0.74
SLC25A4	0.94	0.81
MPPED2	1.04	1.16
TBX20	1	0.77
HDX	0.96	1.02
SULT1C3	0.83	0.78
CTNND1	0.98	0.96
HBG1	0.84	0.79
RNF220	1.01	0.71
MYO1G	1.2	0.48
VEGFD	1	0.92
MYBPHL	0.82	0.61
TMEM41A	0.67	0.56
C1QTNF9	1	0.94
NNMT	1.05	0.82
ARHGAP12	0.77	0.7
RABEP1	1.23	0.92
KRTAP5-1	0.88	0.5
SOX15	1.12	0.93
GABPB2	0.84	0.38
TMPRSS15	1.14	0.8
DYDC1	0.82	0.31
CMPK2	0.86	0.54
FOXA1	0.91	0.52
CASP5	1.23	0.74
BRPF1	1.02	0.49
KRTAP10-12	1.4	0.7
TOR3A	0.95	0.82
UBXN2A	0.88	0.69
CLEC12B	0.98	0.57
SPATA2	0.99	0.73
ODF1	0.88	0.69
SMAD3	0.84	0.86
KRT75	1.15	0.97
